For at least one compound, name, drawing or mass did not settle the structure.
Experiments:
Foxa-2 = test: Immunofluorescence of subcellular distribution of endogenous Foxa-2 in HepG2 cells; type: cell-based; details: inhibitor in the presence of insulin (50 nM)
Experimental: Immunofluorescence microscopy. Cells were fixed for 30 minutes at room temperature with 2% paraformaldehyde. For immunofluorescent detection of Foxa-1 or Foxa-2, fixed cells were incubated with respective polyclonal antibodies (1:100) (Ruiz i Altaba et al. (1993) Mech. Dev. 44: 91-108) overnight at 4° C. After washing, the cells were treated with anti rabbit IgG secondary antibody linked to Alexa Fluor 488 (Molecular Probes). Immunofluorescent staining was visualized using laser-scanning micrsocopy. To determine whether Akt-induced phosporylation of Foxa-2 has an effect on the subcellular distribution of this transcription factor, the following experiment was performed. HepG2 cells were grown to 60% confluency and endogenous Foxa-1 and Foxa-2 proteins were visualized by immunofluorescence after staining with anti Foxa-1 and Foxa-2 antibodies. Cells were either examined in the absence or presence of insulin (50 nM) and/or Ly294002 or PD98059, and after transfection with either Akt1 or Akt2 expression vectors (FIG. 5B). […] Treatment of cells with MAPKK1 inhibitor PD98059 had no effect on insulin stimulated nuclear exclusion of Foxa-2. The subcellular distribution of Foxa-2 in cells that were stimulated with insulin and expressed a dominant negative form of Akt (Akt[…]) were resistant to nuclear exclusion. […]

Pepck, G6pc and Igfbp-1 = test: mRNA levels of Foxa-2 target genes in primary hepatocytes (RT-PCR); type: cell-based; details: inhibitor together with insulin
Experimental: FIGS. 10a-d depict the effect of insulin on Foxa-2 activity. FIG. 10a is a bar graph depicting relative Foxa-2 activity in HepG2 cells transfected with an expression vector for Foxa-2 and […]-Luc (gray bars) or p6xCdx-TkLuc (black bars). Cells were treated with insulin alone or in the presence of Ly294002 or PD98059. FIG. 10b is a bar graph depicting relative Foxa-2 activity in HepG2 cells transfected with p6xCdx-TkLuc and treated with insulin alone or in the presence of Ly294002 or PD98059. […] FIG. 10d is a bar graph depicting relative Foxa-2 activity in HepG2 cells transfected with an expression vector for Foxa-1, Foxa-2, Akt or Akt[…] alone or in combination, using p6xCdx-TkLuc as reporter gene. In all experiments luciferase activity was normalized to β-Gal activity. […] Levels of mRNA were analyzed to determine whether inhibition of Foxa-2 target gene expression by insulin is controlled at a transcriptional or posttranscriptional level. The mRNA levels of Pepck, G6pc and Igfbp-1 in primary hepatocytes that were cultured either in the presence or absence of insulin, PI3-kinase or MAPKK1 inhibitors were measured.

Foxa-2 activity = test: Transactivation assay, HepG2 cells transfected with Foxa-2 and pPepck-Luc or p6xCdx-TkLuc; type: cell-based, rat; details: coincubation, inhibitor 10 μM, insulin 100 nM
[1] = tested on: endogenous Foxa-2 activity in HepG2 cells; test: Endogenous Foxa-2 activity in HepG2 cells transfected with reporter construct alone; type: cell-based; details: coincubated with inhibitor
Experimental: Transfections and Transactivation assay. HepG2 cells were grown to 60-70% confluence in a 24-well dish and transfected with 50 ng of each reporter gene (p6xCdx-TkLuc or pPEPCK-Luc), pCMV-β-Gal as internal reference and the expression vectors for wildtype or mutant Foxa-1 and Foxa-2 and human Akt1/Akt2 using the transfection reagent Fugene6 (Roche). Cells were grown for 48 hours and luciferase activity was measured using the Luciferase Detection System (Promega). Luciferase was normalized for transfection efficiency by β-galactosidase activity. […] To determine whether insulin decreases endogenous Foxa-2 activity in HepG2 cells, cells were transfected with the reporter construct alone and Foxa-2 activity was measured after stimulation with insulin and PI3-kinase or MAPKK1 inhibitors. […] This decrease in activity was ablated when cells were coincubated with Ly294002 but not with PD98059 (FIG. 10b).

O=c1cc(N2CCOCC2)oc2c(-c3ccccc3)cccc12 [Ly294002]
subcellular localization of endogenous Foxa-2 / insulin stimulated nuclear exclusion (Foxa-2): localized almost exclusively in the nucleus
mRNA levels of Pepck, G6pc and Igfbp-1 (Pepck, G6pc and Igfbp-1): but not
insulin mediated decrease of Foxa-2 activity (Foxa-2 activity): prevented
insulin-induced decrease in Foxa-2 activity [1]: ablated
